# Reference: paper PMC7819943, “Rice protein-binding microarrays: a tool to detect cis-acting elements near promoter regions in rice”
# Chains of the proteins cited; added tags and fusions are not shown.
# UniProt Q0JBA9, entry or part of it: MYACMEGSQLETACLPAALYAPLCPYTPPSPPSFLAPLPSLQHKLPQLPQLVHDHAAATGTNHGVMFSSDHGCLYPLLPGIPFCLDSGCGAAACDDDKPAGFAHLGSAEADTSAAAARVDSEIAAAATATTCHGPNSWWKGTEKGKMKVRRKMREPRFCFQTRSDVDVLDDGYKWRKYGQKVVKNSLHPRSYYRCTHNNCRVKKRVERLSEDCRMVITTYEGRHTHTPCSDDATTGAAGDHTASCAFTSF
# The other results are listed elsewhere or left out.
# Target: OsWRKY34 (Oryza sativa, UniProt Q0JBA9 1-250)
# Test: protein-binding microarray (RPBM); PBS, 2% BSA, 51.3 ng/ul salmon testes DNA, 50 uM zinc acetate, 200 nM TF, 25 C, 1 h; high values mean tight binding
# Conditions: protein: recombinant; tags: N-terminal polyhistidine and DsRed monomer fusion (pET32a); label: CyDye5-dUTP incorporated in the synthesized complementary strand; 3' TTTTT single-stranded linker to array surface; dsDNA, one strand shown
# Method in brief: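 Binding signal is reported as fluorescence intensity per feature (arbitrary units) from an Axon 4000B scanner. Incubation used 200 nM of each Ni–NTA-purified, N-terminally polyhistidine- and DsRed-fused transcription factor from E. coli BL21-CodonPlus on a double-stranded custom Agilent array for 1 h at 25 °C, with 50 µM zinc acetate in the buffer, followed by washing.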
row,Sequence,binding signal
1,TACCACATTGTTGTGTACTGACAGCTTCTTGAGTTTGGGGCGGAGTCACCTAGTGCAG,8560 fluorescence intensity (a.u.)
2,AATTCCTACGTTTTTCCTATTCCTGTGTTTTTCCTATCCTCGGAGTCACCTAGTGCAG,8920 fluorescence intensity (a.u.)
3,AAATAGCGGACCATCCTTTCTTCCCTACACCACACACCAACGGAGTCACCTAGTGCAG,8410 fluorescence intensity (a.u.)
4,AATCTAAATATACGTTTCACTGAAAACGACACCCGCACATCGGAGTCACCTAGTGCAG,8120 fluorescence intensity (a.u.)
5,TAATTTTTTTCTATTTGTGTTTATTGTGCCACGTTATCTACGGAGTCACCTAGTGCAG,9830 fluorescence intensity (a.u.)
6,CGTCGCAGAGAGCGAGTGCCAGGTTCAGTTGTCCAATTCACGGAGTCACCTAGTGCAG,8550 fluorescence intensity (a.u.)
7,CTGATTCGTGGGAGGTGGTGGTGTCTGATTCGTGGGAGGCCGGAGTCACCTAGTGCAG,9890 fluorescence intensity (a.u.)
8,ATTATAGACATTTCTACTTCTCTCGTACATATTTATATGCCGGAGTCACCTAGTGCAG,8110 fluorescence intensity (a.u.)
9,GTAAATTATGTATGACGCGGTTGACTTTTTATTAACGTTTCGGAGTCACCTAGTGCAG,16800 fluorescence intensity (a.u.)
10,CTCCATCACCCTCGTCCTCACCGACGGGCCCTACAAGGGGCGGAGTCACCTAGTGCAG,9610 fluorescence intensity (a.u.)
11,AAGTGATTCCCACCTAGCTAGCTTTGCTCCTATATAAAGCCGGAGTCACCTAGTGCAG,8920 fluorescence intensity (a.u.)
12,AACGGAATTAAACTAACCGTTGACTAGCGGCAATGGTATGCGGAGTCACCTAGTGCAG,10100 fluorescence intensity (a.u.)
13,GATACTGTTGGATTATTCTCTCACCATCAATTTGCTTTAGCGGAGTCACCTAGTGCAG,8040 fluorescence intensity (a.u.)
14,ACACTCGCTCTCGCCTTGACCAAAGCCCACATCGCGCAGGCGGAGTCACCTAGTGCAG,9020 fluorescence intensity (a.u.)
15,TCCCGTTCAGTCAAGTGTCCACCCAGTTCTTGCATGACGGCGGAGTCACCTAGTGCAG,8980 fluorescence intensity (a.u.)
16,TCTTCGCTTTCTCCGCCTCCTCGTCCCGCTCGGGCGACGTCGGAGTCACCTAGTGCAG,9280 fluorescence intensity (a.u.)
17,ATATCGTCGCTTCCGCTTCTCTCCCTCTCTCGCCCCGCTCCGGAGTCACCTAGTGCAG,13300 fluorescence intensity (a.u.)
18,CTCCGAGATTGATCTTGCCCGCTCTCATGTGCGAAAGCTTCGGAGTCACCTAGTGCAG,8340 fluorescence intensity (a.u.)
19,ATATTTAAAAAAGTCAACGGCGTCAAACATTTTGAAACGGCGGAGTCACCTAGTGCAG,16800 fluorescence intensity (a.u.)
20,GCTACTAAGGAGTACTACAATATTGCATCATCGTCATCATCGGAGTCACCTAGTGCAG,9960 fluorescence intensity (a.u.)
21,GGTGGAATACTTAAAATTGTATTCTTTGCTACTTACCTCACGGAGTCACCTAGTGCAG,8470 fluorescence intensity (a.u.)

# Quoted at random: two records from the list, in no set order.
row,Sequence,binding signal
1,TACCACATTGTTGTGTACTGACAGCTTCTTGAGTTTGGGGCGGAGTCACCTAGTGCAG,8560 fluorescence intensity (a.u.)
13,GATACTGTTGGATTATTCTCTCACCATCAATTTGCTTTAGCGGAGTCACCTAGTGCAG,8040 fluorescence intensity (a.u.)

# Additional results follow:

row,Sequence,binding signal
1,GATAGAGGAGAGGGTGGGCGCGCAACAGCAATAAGCATTACGGAGTCACCTAGTGCAG,9420 fluorescence intensity (a.u.)
2,TTGCACCAGTGCCACTGCCACCTAGCTCACCCTGTCATTTCGGAGTCACCTAGTGCAG,8260 fluorescence intensity (a.u.)
3,ACGACGCGCCATACCTGCCTGCCCCTGCCGCCTCCATCACCGGAGTCACCTAGTGCAG,9760 fluorescence intensity (a.u.)
4,GTTCGTCTCGCCCCAGTTCATCCTCCACCATCCACATATGCGGAGTCACCTAGTGCAG,8030 fluorescence intensity (a.u.)
5,TCATGCCCTGTTCCTTTTTTCTTTTCAATGTCTCATTCAACGGAGTCACCTAGTGCAG,10800 fluorescence intensity (a.u.)
6,AGAGGGGAGGGAGGAGGATTATGGTTTTTTTTCTCTAAAACGGAGTCACCTAGTGCAG,16700 fluorescence intensity (a.u.)
7,TTATCTATTTTTTTGACTTACTTTACTATCCAAAGTACTTCGGAGTCACCTAGTGCAG,9030 fluorescence intensity (a.u.)
8,ATCTTGATATTGACGAAGTCATCACATGCGCATCGTTGCCCGGAGTCACCTAGTGCAG,8160 fluorescence intensity (a.u.)
9,GCACAAATCCACTACCCCACCACTCCCTTTCTCTTTCTCACGGAGTCACCTAGTGCAG,10300 fluorescence intensity (a.u.)
10,AAATGTGGAATGGTTGGCCTGGGTTGGCTTGGGACGAGCTCGGAGTCACCTAGTGCAG,17000 fluorescence intensity (a.u.)
11,TTGGGCTATTCCTCGACTCTAGGTTGGGTGAGAGACTTGTCGGAGTCACCTAGTGCAG,8250 fluorescence intensity (a.u.)
12,GTAGGATATGATGCACAATTCGCTTCCCAGTCACCTTCCACGGAGTCACCTAGTGCAG,9040 fluorescence intensity (a.u.)
13,CTGCCGCCTTGCTGCCAGCCCTCCGCTCTGGCCTCCGCCGCGGAGTCACCTAGTGCAG,8450 fluorescence intensity (a.u.)
14,GATTATCTGCGCAAATACTGTTACCGTATTAACACACATTCGGAGTCACCTAGTGCAG,8240 fluorescence intensity (a.u.)
15,ATGACGTCATTTGGTTGGTCTAGAACATTCGTTCCGTCCTCGGAGTCACCTAGTGCAG,8880 fluorescence intensity (a.u.)
16,TATTTACACGCTTTTCAAACTATTAAATGATATGTTTTTTCGGAGTCACCTAGTGCAG,9560 fluorescence intensity (a.u.)
17,CTCAGCTCACACACTTCGTCTCCACTATACTACCTAGCTACGGAGTCACCTAGTGCAG,8360 fluorescence intensity (a.u.)
18,ACTCATCCGCCGCTGAGCTCTATCTATCTACTAGTTAGTTCGGAGTCACCTAGTGCAG,8840 fluorescence intensity (a.u.)
19,TTTTTTGGCGATCTCTTCTGTGTTCCTTTGTTAGTCTAGCCGGAGTCACCTAGTGCAG,12000 fluorescence intensity (a.u.)
20,GTACTTTAAGCACAACTTTTTATTTTTTATATTTGCAAAACGGAGTCACCTAGTGCAG,8410 fluorescence intensity (a.u.)
21,ATTAATTCTGTTTTTTTCAAGTCTCTCTCGCTCTCGCTCCCGGAGTCACCTAGTGCAG,8820 fluorescence intensity (a.u.)
